According to publication PMC6199259, “Structural and functional insights into the interaction and targeting hub TMD0 of the polypeptide transporter TAPL” (Scientific Reports, 2018):
Results are given in words; binding and its absence hold for the method and conditions named. Binding seen in cells or lysates may run through a third protein. Some results given as binding are weak or reduced against the parent protein; the word gives no strength. Where a sequence is shown, tags or fusion partners need not be part of it.

T1: TMD0-myc (N-terminal transmembrane domain TMD0 of human TAPL, wild type) (human) (UniProt Q9NP78)
T1 sequence: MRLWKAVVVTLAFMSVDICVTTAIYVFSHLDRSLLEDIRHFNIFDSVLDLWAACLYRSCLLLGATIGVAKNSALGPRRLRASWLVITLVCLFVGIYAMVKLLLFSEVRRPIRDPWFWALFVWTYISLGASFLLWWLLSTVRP


Columns and labels:
[1] = target: T1, TMD0-myc (N-terminal transmembrane domain TMD0 of human TAPL, wild type) (human); assay: co-IP; HEK 293 T cells transiently co-transfected; solubilised with 1% digitonin; immunoprecipitation with myc-tag specific antibody on Dynabeads, isotype control as mock; 20 mM Tris, 150 mM NaCl, 5 mM MgCl2, pH 7.4, 4 °C; immunoblot
[2] = target: T1, TMD0-myc (N-terminal transmembrane domain TMD0 of human TAPL, wild type) (human); assay: co-IP; HEK 293 T cells transiently transfected with Flag- and myc-tagged copies of TMD0; solubilised with 1% digitonin; immunoprecipitation with Flag-tag specific antibody, isotype control as mock; immunoblot

binding [1] | binding [2] | Binder
no binding |  | TAPL (M1–A766), full length (protein, UniProt Q9NP78 1-766) MRLWKAVVVTLAFMSVDICVTTAIYVFSHLDRSLLEDIRHFNIFDSVLDLWAACLYRSCLLLGATIGVAKNSALGPRRLRASWLVITLVCLFVGIYAMVKLLLFSEVRRPIRDPWFWALFVWTYISLGASFLLWWLLSTVRPGTQALEPGAATEAEGFPGSGRPPPEQASGATLQKLLSYTKPDVAFLVAASFFLIVAALGETFLPYYTGRAIDGIVIQKSMDQFSTAVVIVCLLAIGSSFAAGIRGGIFTLIFARLNIRLRNCLFRSLVSQETSFFDENRTGDLISRLTSDTTMVSDLVSQNINVFLRNTVKVTGVVVFMFSLSWQLSLVTFMGFPIIMMVSNIYGKYYKRLSKEVQNALARASNTAEETISAMKTVRSFANEEEEAEVYLRKLQQVYKLNRKEAAAYMYYVWGSGLTLLVVQVSILYYGGHLVISGQMTSGNLIAFIIYEFVLGDCMESVGSVYSGLMQGVGAAEKVFEFIDRQPTMVHDGSLAPDHLEGRVDFENVTFTYRTRPHTQVLQNVSFSLSPGKVTALVGPSGSGKSSCVNILENFYPLEGGRVLLDGKPISAYDHKYLHRVISLVSQEPVLFARSITDNISYGLPTVPFEMVVEAAQKANAHGFIMELQDGYSTETGEKGAQLSGGQKQRVAMARALVRNPPVLILDEATSALDAESEYLIQQAIHGNLQKHTVLIIAHRLSTVEHAHLIVVLDKGRVVQQGTHQQLLAQGGLYAKLVQRQMLGLQPAADFTAGHNEPVANGSHKA
binds |  | coreTAPL (MG143–A766) (domain or fragment, UniProt Q9NP78 143-766) MGTQALEPGAATEAEGFPGSGRPPPEQASGATLQKLLSYTKPDVAFLVAASFFLIVAALGETFLPYYTGRAIDGIVIQKSMDQFSTAVVIVCLLAIGSSFAAGIRGGIFTLIFARLNIRLRNCLFRSLVSQETSFFDENRTGDLISRLTSDTTMVSDLVSQNINVFLRNTVKVTGVVVFMFSLSWQLSLVTFMGFPIIMMVSNIYGKYYKRLSKEVQNALARASNTAEETISAMKTVRSFANEEEEAEVYLRKLQQVYKLNRKEAAAYMYYVWGSGLTLLVVQVSILYYGGHLVISGQMTSGNLIAFIIYEFVLGDCMESVGSVYSGLMQGVGAAEKVFEFIDRQPTMVHDGSLAPDHLEGRVDFENVTFTYRTRPHTQVLQNVSFSLSPGKVTALVGPSGSGKSSCVNILENFYPLEGGRVLLDGKPISAYDHKYLHRVISLVSQEPVLFARSITDNISYGLPTVPFEMVVEAAQKANAHGFIMELQDGYSTETGEKGAQLSGGQKQRVAMARALVRNPPVLILDEATSALDAESEYLIQQAIHGNLQKHTVLIIAHRLSTVEHAHLIVVLDKGRVVQQGTHQQLLAQGGLYAKLVQRQMLGLQPAADFTAGHNEPVANGSHKA
 | binds | TMD0-myc (N-terminal transmembrane domain TMD0 of human TAPL, wild type) (domain or fragment, UniProt Q9NP78 1-142) MRLWKAVVVTLAFMSVDICVTTAIYVFSHLDRSLLEDIRHFNIFDSVLDLWAACLYRSCLLLGATIGVAKNSALGPRRLRASWLVITLVCLFVGIYAMVKLLLFSEVRRPIRDPWFWALFVWTYISLGASFLLWWLLSTVRP
